These are literature values, as cited in US20210121408A1, “Methods of Administering Cannabinoid to People Diagnosed With HIV” (priority 2019, published 2021).

Turning to `C=C(C)[C@@H]1CCC(C)=C[C@H]1c1c(O)cc(CCCCC)cc1O` [CBD, cannabidiol], the “solubility in ethanol, acetone, chloroform and light petroleum” value (ethanol, acetone, chloroform and light petroleum) is “soluble”. Besides, the solubility in water entry (water) is “insoluble”.
